Data reported in patent EP4837902A1, “LIPID COMPOUND AND LIPID NANOPARTICLE FOR DELIVERY” (dated 2026).
Structures were worked out from names or drawings and are uncertain.

Legend:
[1] = Encapsulation efficiency of mRNA-loaded LNPs (RiboGreen assay kit, 10% OTG as demulsifier); conditions: LNP of compound, cholesterol, DSPC, DMG-PEG2000 in molar ratio 50:38.5:10:1.5; encapsulated mRNA
Description: (§1) An mRNA stock solution was dispersed in a 20 mM acetic acid solution (pH 5.3) to a final concentration of 200 µg/mL (aqueous phase). The example compound, cholesterol, DSPC, and DMG-PEG2000 were mixed in a molar ratio of 50:38.5:10:1.5 to form a mixed lipid (oil phase). Flow rates of the aqueous phase and the oil phase were controlled to mix mRNA with the lipid mixture via T-junction mixing, to obtain LNP encapsulated mRNA. The encapsulated LNPs were diluted with a buffer solution and then concentrated by ultrafiltration. The diluent was replaced. Finally, the LNPs were concentrated to an mRNA concentration of 100 µg/mL, and the pH of the LNPs was adjusted to about 7.0-8.5. Finally, the total mRNA content and free mRNA content in the LNPs were measured by using a RiboGreen assay kit and 10% OTG as a demulsifier, and the encapsulation efficiency of the LNPs was calculated. The final LNP product was diluted with a diluent, added (1 ml) to a particle size cell, and placed on a Malvern Zetasizer instrument to measure the particle size of the LNPs.

[2] = Particle size and PDI of LNPs (Malvern Zetasizer); conditions: LNP of compound, cholesterol, DSPC, DMG-PEG2000 in molar ratio 50:38.5:10:1.5; encapsulated mRNA
Description: as §1

Encapsulation efficiency [1] [%]	PDI [2]	Particle size [2] [nm]	SMILES
98.71	0.0152	79.91	CCCCCCCCC(CCCCCC)C(=O)OCCCCCCC1(CCCCCCOC(=O)C(CCCCCC)CCCCCCCC)OCC(CCCCN(C)C)O1 (stereo not drawn)
92.17	0.1415	74.36	CCCCC/C=C\C/C=C\CCCCCCCCC(CCCCCCCC/C=C\C/C=C\CCCCC)OC(=O)CCCN(C)C
